Where two headings read alike, the source gives them in different places.
Assays:
[1] = Brain slice method, unbound volume of distribution in the brain (rat); format: in vitro ADME; conditions: SD rat brain slices, 5 h incubation at 37°C; mean (standard deviation)
[2] = NMRI, mouse

Question: For `CN1C(=O)CN=C(c2ccccc2)c2cc(Cl)ccc21` [Diazepam], which “Vu,brain” value [1] is on record?
Answer: Its value is 17.8 (1.1) ml·g brain^-1.

Question: What about the “Vu,brain” value [2] of the same molecule?
Answer: The value was 17.1 (2.3) ml·g brain^-1.
